The target of the assay is Muc1-GFP with 42 tandem repeats (Muc1 mOxGFP ΔCT, about 42 native tandem repeats) on 1E7 cells (UniProt P15941). Put plainly: fluorescence quantification of recombinant galectin on 1E7 cells and glycoengineered progeny (glycan-mediated).

The chains behind the UniProt entries cited, without tags or fusion partners. Where a name states a change or a piece, a line headed by the entry shows the natural chain unless it says otherwise. Residues count along the entry.
UniProt P15941, residues 24-1189: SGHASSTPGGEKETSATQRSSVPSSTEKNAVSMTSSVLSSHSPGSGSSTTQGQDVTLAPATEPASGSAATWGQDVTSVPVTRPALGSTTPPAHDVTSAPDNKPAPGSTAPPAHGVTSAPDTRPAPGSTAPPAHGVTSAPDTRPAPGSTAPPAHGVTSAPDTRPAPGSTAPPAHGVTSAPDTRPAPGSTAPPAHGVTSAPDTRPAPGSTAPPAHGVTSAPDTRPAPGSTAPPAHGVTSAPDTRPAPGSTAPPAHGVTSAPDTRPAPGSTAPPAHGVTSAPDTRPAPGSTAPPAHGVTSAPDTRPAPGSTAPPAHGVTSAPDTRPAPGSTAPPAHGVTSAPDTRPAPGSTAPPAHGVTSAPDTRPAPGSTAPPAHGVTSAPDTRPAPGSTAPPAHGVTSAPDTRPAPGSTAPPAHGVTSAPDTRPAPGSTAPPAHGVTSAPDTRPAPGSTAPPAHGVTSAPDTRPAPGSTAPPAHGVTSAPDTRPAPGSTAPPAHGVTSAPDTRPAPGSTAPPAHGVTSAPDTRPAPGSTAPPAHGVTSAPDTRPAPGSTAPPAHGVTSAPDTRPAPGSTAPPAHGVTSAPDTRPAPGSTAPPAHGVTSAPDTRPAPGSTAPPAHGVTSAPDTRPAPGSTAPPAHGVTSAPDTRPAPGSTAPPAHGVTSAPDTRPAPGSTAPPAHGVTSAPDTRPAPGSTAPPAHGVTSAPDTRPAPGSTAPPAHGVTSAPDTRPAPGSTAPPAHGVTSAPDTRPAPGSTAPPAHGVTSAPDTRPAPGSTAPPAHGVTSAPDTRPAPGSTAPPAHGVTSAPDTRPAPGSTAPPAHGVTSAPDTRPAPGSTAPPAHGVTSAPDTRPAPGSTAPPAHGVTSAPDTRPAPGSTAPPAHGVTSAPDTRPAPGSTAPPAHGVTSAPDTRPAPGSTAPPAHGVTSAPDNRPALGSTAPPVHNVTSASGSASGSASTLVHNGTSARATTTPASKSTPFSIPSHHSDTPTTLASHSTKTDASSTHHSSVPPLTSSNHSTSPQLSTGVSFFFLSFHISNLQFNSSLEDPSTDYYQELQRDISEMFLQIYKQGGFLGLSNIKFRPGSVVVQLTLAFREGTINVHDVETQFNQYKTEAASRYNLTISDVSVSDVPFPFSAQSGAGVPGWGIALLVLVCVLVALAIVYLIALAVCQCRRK
UniProt P09382, residues 2-135: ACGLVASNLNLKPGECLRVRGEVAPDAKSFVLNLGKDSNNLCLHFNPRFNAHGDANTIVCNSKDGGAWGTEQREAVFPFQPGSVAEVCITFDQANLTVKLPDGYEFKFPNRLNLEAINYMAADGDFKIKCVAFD

From patent US20250152627A1, “COMPOSITIONS AND METHODS FOR ENHANCING IMMUNE CELL FUNCTION USING MODIFIED CELLS WITH GLYCOCALYX EDITING ENZYMES” (Cornell University, priority 2021, published 2025) come the findings set out here.

These are yes or no findings as the source states them, for the method shown. Some results given as binding are weak or reduced against the parent protein; the word gives no strength.

For the substance “recombinant human galectin-1 (from UniProt P09382 2-135) (ligand)”, the binding entry was “binds”.
